Test results published in PubChem BioAssay AID504444 (National Center for Advancing Translational Sciences (NCATS), 2011).
Values joined by “and” are separate entries in the source; they are usually repeats but may differ in a detail not shown here. Identical values can stand only once. Screen size: about 360,000 compounds; about 7,500 (2.1%) were called active. Inconclusive results, whose numbers are uncertain, are shown with a selection of clear calls. Calls come from the whole dose curve; as a rule, active = well fitted inhibition curve with a large enough effect; inconclusive = small, poorly fitted or top-dose-only effect, or effect the other way; inactive = flat fitted curve, though single readings scatter. A potency beside an inconclusive call is a rough fit, not a confirmed value.

Experiment: Nrf2 qHTS screen for inhibitors; note: nearly all actives have a fitted effect of over 60% in size
Settings: A549 ARE-Fluc reporter, luciferase luminescence, 18-24 h; series mostly up to 46 µM
Outline: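 Reporter: ARE-Fluc in A549. Exposure: 18-24 h, 37 °C, 5% CO2, 5% FBS OPTI-MEM. Readouts: fluorescent cytotoxicity (CellTiter-Fluor), then luminescent Nrf2 signal after BugLite.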
Potency is the fitted concentration of half-maximal effect.

Structure (SMILES) | Potency
CN(C)c1ccc(CNCCC(Cc2ccccc2)c2ccco2)cc1 (stereo not given) | inactive
CNC(C)C(=O)NC(C(=O)N1CCCC1C(=O)NC1CCCc2ccccc21)C(C)C (stereo not given) | inconclusive: 0.0731 µM [falling, full curve, poor fit]
CCCSCCCNC(=O)Cn1c(-c2cccs2)cc2ccccc21 | inconclusive: 29.1 µM [falling, single point]
C[N+]1(CC(O)COCC2COc3ccccc3O2)CCOCC1 (stereo not given) | inconclusive: 4.11 µM [falling, single point]
O=C(c1ccc(S(=O)(=O)c2ccc(F)cc2)c([N+](=O)[O-])c1)N1CCCCCC1 | inconclusive: 23.1 µM [falling, single point]
COc1ccc(CN(C)C(=O)c2cccc(C(=O)N(C)Cc3ccc(OC)cc3)c2)cc1 | inconclusive: 23.1 µM [falling, single point]
O=c1c2ccccc2cnn1-c1nc2ccccc2[nH]1 | inconclusive: 1.46 µM [falling, full curve, poor fit]
COCCn1c(SCC(=O)Nc2ccccc2F)nc2c(c1=O)SCC2 | active: 4.11 µM
CCc1cccc(NC(=O)C2CCN(S(=O)(=O)c3ccc4c(c3)NC(=O)CO4)CC2)c1 | inconclusive: 20.6 µM [falling, partial curve]
Cc1ccc(CNC(=O)C(C(C)C)N2Cc3ccccc3C2=O)cc1 (stereo not given) | inactive
CC(=O)OCC1OC(Sc2cccc3cccnc23)C(OC(C)=O)C(OC(C)=O)C1OC(C)=O (stereo not given) | inactive
O=C(Nc1ccc2c(c1)OCCO2)c1c[nH]c(=O)n(-c2ccc(F)c(Cl)c2)c1=O | inactive
COc1ccc(N2CCN(CCNS(=O)(=O)c3ccc(C)cc3)CC2)cc1 | inconclusive: 4.11 µM [activator, partial curve, poor fit]
C[C@]12c3[nH]c4ccc(Cl)cc4c3CCN1C(=O)[C@@H](CC(=O)NCc1ccco1)C[C@@H]2C(=O)N1CCCCC1 | inconclusive: 29.1 µM [falling, single point]
CCN(c1ccc(OC)cc1)S(=O)(=O)c1c(C(=O)N2CCCCCC2)c(C)n(C)c1C | inactive
COc1ccc(N2CCN(CC(O)COc3ccccc3C(C)(C)C)CC2)cc1 (stereo not given) | inconclusive: 20.6 µM [falling, partial curve]
COc1ccc(S(=O)(=O)Nc2ccc3c(c2)C(=O)N([C@H](C)CO)C[C@H](C)[C@H](CN(C)Cc2ccc(C(=O)O)cc2)O3)cc1 | inactive
CN(C(=O)CSc1cn(CC(=O)N2CCCCCC2)c2ccccc12)c1ccccc1 | inconclusive: 14.6 µM [activator, partial curve, poor fit]
COc1ccccc1N1CCN(/N=C/c2cc(OC)c(OC)c(OC)c2)CC1 | inactive
COc1ccc(-c2cc(C(=O)NCCc3ccccc3)no2)cc1OC | inconclusive: 1.84 µM [falling, full curve, poor fit]
O=C(Cc1cc2ccccc2o1)NCc1ccc(F)cc1 | inactive
CCN(CCCNc1ncnc2nc[nH]c12)c1cccc(C)c1 | inconclusive: 32.6 µM [falling, single point]

Structure (SMILES) | Potency
O=S(=O)(c1ccc2c(c1)OCCO2)C1CCC(S(=O)(=O)c2c(F)cccc2F)CC1 (stereo not given) | inconclusive: 29.1 µM [activator, single point]
CCn1c(=S)[nH]c2cc(S(=O)(=O)N3CCCCC3)ccc21 | inconclusive: 5.17 µM [falling, partial curve, poor fit]
CCOCCCNc1nc2c(c(=O)n(C)c(=O)n2C)n1CCCc1ccccc1 | inconclusive: 29.1 µM [falling, single point]
CCOC(=O)CCC(=O)Nc1ccc(S(=O)(=O)N2CCCCC2)cc1 | inconclusive: 4.61 µM [activator, single point]
C=CCOc1ccc(/C=N/NC(=O)c2cc3c(OC)cc(OC)cc3[nH]2)cc1 | inconclusive: 32.6 µM [falling, single point]
O=C(Nc1ccc(N2CCN(Cc3ccccc3Cl)CC2)cc1)c1cccnc1 | inconclusive: 14.6 µM [falling, partial curve]
CC(=O)Nc1ccc(NC(=O)CSc2ccccn2)cc1 | inconclusive: 16.4 µM [activator, partial curve, poor fit]
Cc1ccc(N2CC(c3nnc(Cc4ccc(Cl)cc4)o3)CC2=O)cc1 (stereo not given) | inactive
Cc1[nH]n(-c2ccccc2)c(=O)c1C=NC1CCCCC1 | inconclusive: 18.4 µM [activator, single point]
Cc1cccc(N2CCN(C(=O)Cn3c(=O)c4cccn4c4ccc(F)cc43)CC2C)c1 (stereo not given) | inconclusive: 29.1 µM [activator, single point]
CCCCCn1c(SCCC(C)C)nc2c1c(=O)[nH]c(=O)n2C | inconclusive: 29.1 µM [falling, single point]
Cn1c(=O)c2sccc2n2c(CCCC(=O)Nc3ccc(F)cc3F)nnc12 | inactive
O=C(NCC1CCCO1)c1cc2nc(-c3ccco3)cc(C(F)(F)Cl)n2n1 (stereo not given) | inactive
CCN(CC)S(=O)(=O)c1ccc2nc(CSc3nnnn3-c3ccc(O)cc3)[nH]c2c1 | inconclusive: 29.1 µM [falling, single point]
Cc1oncc1-c1csc(-c2ccccc2)n1 | inconclusive: 23.1 µM [activator, single point]
O=c1c(-c2ccccc2)coc2cc(O)ccc12 | inconclusive: 29.1 µM [activator, single point]
O=C(c1cc(-c2ccc(Br)cc2)on1)N1CCCC1 | inconclusive: 1.64 µM [activator, partial curve, poor fit]
COc1cc(NC(=O)COc2ccc(-n3ccnc3)cc2)cc(OC)c1 | inconclusive: 16.4 µM [falling, single point]
CC1CCc2nc(NC(=O)CSc3nc4ccccc4o3)sc2C1 (stereo not given) | inconclusive: 23.1 µM [falling, single point]
CC(=O)Nc1ccc(SCC(=O)Nc2ccc3c(c2)OCCO3)cc1 | inconclusive: 18.4 µM [activator, single point]
Cc1cc2nn(-c3ccc(Cl)cc3)nc2cc1NC(=O)C(C)C | inconclusive: 0.82 µM [activator, full curve]
CC(=O)Nc1ccc(NC2=C/C(=N/S(=O)(=O)c3cccs3)c3ccccc3C2=O)cc1 | inactive

Structure (SMILES) | Potency
CCn1c(CN2CCN(c3cccc(Cl)c3)CC2)nc2c1c(=O)[nH]c(=O)n2C | inconclusive: 13 µM [falling, partial curve, poor fit]
C[C@@H]1C[C@H]2[C@@H]3CCC4=CC(=O)C=C[C@]4(C)[C@@]3(F)[C@@H](O)C[C@]2(C)[C@@]1(O)C(=O)CO | active: 5.2 nM and active: 4.6 nM
Cc1ccc(NC(=O)CCC(=O)N/N=C/c2ccc(O)cc2O)cc1 | inconclusive: 29.1 µM [falling, single point]
CCOc1ccccc1NC(=O)c1ccc(F)c(S(=O)(=O)N2CCC3(CC2)OCCO3)c1 | inactive
Cc1occc1C(=O)NCc1nc(-c2ccc(Cl)cc2)no1 | inconclusive: 29.1 µM [falling, single point]
Cc1c(C(=O)Nc2ccc(S(=O)(=O)NCC3CCCO3)cc2)cccc1[N+](=O)[O-] (stereo not given) | inconclusive: 16.4 µM [falling, partial curve, poor fit]
Cc1cccn2c(=O)c3cc(C(=O)N4CCCC(C)C4)sc3nc12 (stereo not given) | inconclusive: 10.3 µM [activator, partial curve]
COc1ccc(C2C3=C(CCCC3=O)Nc3ccc4ncccc4c32)cc1OC (stereo not given) | inactive
O=C(CN1C(=O)c2ccccc2S1(=O)=O)c1ccc(OC(F)F)cc1 | inconclusive: 25.9 µM [falling, single point]
COc1ccc(C(=O)Nc2cccc(-c3csc(C)n3)c2)cc1S(=O)(=O)N1CCCC1 | inconclusive: 18.4 µM [falling, single point]
CCN(C[C@H]1N[C@@](C)(C(=O)OC)[C@H]2C(=O)N(Cc3ccccc3)C(=O)[C@@H]12)C(=O)C1CCCCC1 | inconclusive: 6.51 µM [falling, single point]
CSc1nn2c(C(F)(F)F)cc(C(F)(F)F)nc2c1C(N)=O | inconclusive: 1.3 µM [falling, full curve]
O=C(Nc1nc2ccsc2c(=O)s1)c1ccco1 | inconclusive: 2.59 µM [activator, full curve]
Cc1ccc(C)c(N2CCN(C(=O)c3cccc(-n4c(C)nc5cccnc54)c3)CC2)c1 | inconclusive: 7.31 µM [falling, partial curve]
O=C(CCc1nc(-c2ccccc2F)no1)Nc1cccc(C(F)(F)F)c1 | inconclusive: 29.1 µM [falling, single point]
CCOC(=O)C1CCN(c2nc(C)cc(C)c2C#N)CC1 | inactive
COc1ccccc1N(CC(=O)Nc1cccc(C(F)(F)F)c1)S(C)(=O)=O | inactive
O=C(Nc1ccn(-c2ccccc2)n1)c1ccc(S(=O)(=O)N2CCCCCC2)cc1 | inconclusive: 29.1 µM [falling, single point]
COc1ccc(/C=N/NC(=O)c2cccnc2)c(C(=O)O)c1OC | inconclusive: 29.1 µM [falling, single point]
CCOc1ccc(OCC)c(NC(=O)c2cc(C)nc3c2c(C)nn3-c2cccc(Cl)c2C)c1 | inconclusive: 25.9 µM [activator, single point]
C=CCNC(=S)N1CCC(Cc2ccccc2)CC1 | inconclusive: 16.4 µM [falling, single point]
